The values below come from paper PMC7948952, “Structural basis for multifunctional roles of human Ints3 C-terminal domain” (The Journal of Biological Chemistry, 2020).

Chains of the proteins cited; added tags and fusions are not shown. Chains listed by the source or under a name are the forms on record and can include a tag or linker.
Ints3 C-terminal domain (Ints3-555-976) WT (human), one chain, as listed by the source: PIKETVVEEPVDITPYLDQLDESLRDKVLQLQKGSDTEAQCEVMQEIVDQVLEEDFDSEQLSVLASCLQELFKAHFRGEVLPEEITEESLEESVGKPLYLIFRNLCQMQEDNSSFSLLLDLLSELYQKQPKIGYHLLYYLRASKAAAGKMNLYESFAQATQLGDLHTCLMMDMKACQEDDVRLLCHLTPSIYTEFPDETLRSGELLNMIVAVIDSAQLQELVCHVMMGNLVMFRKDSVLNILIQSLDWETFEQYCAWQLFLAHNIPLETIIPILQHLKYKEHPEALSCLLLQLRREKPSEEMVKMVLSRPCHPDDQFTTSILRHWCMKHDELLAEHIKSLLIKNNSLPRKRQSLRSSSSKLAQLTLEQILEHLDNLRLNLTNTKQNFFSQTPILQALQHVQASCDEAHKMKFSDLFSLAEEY

The subject of the data set is Ints3 C-terminal domain (Ints3-555-976) WT (human). The data set is described as follows: EMSA. The settings on record: shifted fraction rather low at 25 uM protein, tested up to 200 uM; 20 mM Hepes pH 7.4, 100 mM NaCl, 1 mM MgCl2, 1 mg/ml BSA, 2 mM DTT, 5% glycerol; on ice 30 min; 7.5 nM probe; native 5% PAGE in 1X TBE; recombinant protein; residues 555-976; label: 5' 32P; single-stranded DNA.

The comparison behind a weaker result is the experiment's own reference, which may not be listed here.

As to TTTTTTTTTTTTTTTTTTTTTTTTTTTTTT [dT30], the binding result is reported as “binds more weakly”.
